Data taken from publication PMC6370856, “Peptidyl prolyl cis/trans isomerase activity on the cell surface correlates with extracellular matrix development” (Communications Biology, 2019).
Further values from the same series stand in other lists.

System: fibrin hydrogel
Experiment: Stiffness (storage modulus) of fibrin gel by rheometer
Method: To minimize sample evaporation at 37 °C, a tissue paper wet in HEPEs buffer (10 mM, pH 7.8) was placed inside the H-PTD chamber to increase the humidity. […] The cone and plate were treated with plasma for 5 min to increase the hydrophilicity of the metal surface.
Fibrin gel: Fibrinogen (Shanghai Laishi Xuezhipin Limited Company) was dissolved in PBS with a concentration of 22.2 mg mL^−1 overnight at room temperature with gentle shaking and aliquoted in protein low-binding tubes (45 µL per tube). […] Fifty microliters of thrombin (4 EU mL^−1 in PBS with 1.8 mM CaCl2) was added and pipetted up and down ten times. Then, it was transferred to the rheometer plate for measurement. […] For each condition, two independent experiments were performed (Fig. 1a and Supplementary Fig. 1).

CypA: recombinant cyclophilin A, a PPIase, expressed in E. coli
Storage Modulus Mean (1 micromolar CypA, 0.5 min): 45.818 Pa
Storage Modulus Mean (1 micromolar CypA, 1 min): 48.4905 Pa
Storage Modulus Mean (1 micromolar CypA, 2 min): 52.9685 Pa
Storage Modulus Mean (1 micromolar CypA, 2.5 min): 54.993 Pa
Storage Modulus Mean (1 micromolar CypA, 15.5 min): 79.1775 Pa
Storage Modulus Mean (1 micromolar CypA, 16 min): 79.6365 Pa
Storage Modulus Mean (1 micromolar CypA, 16.5 min): 80.152 Pa
Storage Modulus Mean (1 micromolar CypA, 17 min): 80.5265 Pa
Storage Modulus Mean (1 micromolar CypA, 17.5 min): 80.761 Pa
Storage Modulus Mean (1 micromolar CypA, 18 min): 81.103 Pa
Storage Modulus Mean (1 micromolar CypA, 18.5 min): 81.3165 Pa
Storage Modulus Mean (1 micromolar CypA, 19 min): 82 Pa
Storage Modulus Mean (1 micromolar CypA, 19.5 min): 82.816 Pa
Storage Modulus Mean (1 micromolar CypA, 20 min): 82.7485 Pa
Storage Modulus Mean (1 micromolar CypA, 20.5 min): 83.9135 Pa
Storage Modulus Mean (1 micromolar CypA, 21 min): 83.831 Pa
Storage Modulus Mean (1 micromolar CypA, 22 min): 84.392 Pa
Storage Modulus Mean (1 micromolar CypA, 22.5 min): 84.6935 Pa
Storage Modulus Mean (1 micromolar CypA, 23 min): 84.7675 Pa
Storage Modulus Mean (1 micromolar CypA, 23.5 min): 85.516 Pa
Storage Modulus Mean (1 micromolar CypA, 24 min): 85.767 Pa
Storage Modulus Mean (1 micromolar CypA, 24.5 min): 85.62 Pa
Storage Modulus Mean (1 micromolar CypA, 25 min): 85.593 Pa
Storage Modulus Mean (1 micromolar CypA, 25.5 min): 85.745 Pa
Storage Modulus Mean (1 micromolar CypA, 26 min): 85.9515 Pa
Storage Modulus Mean (1 micromolar CypA, 26.5 min): 86.447 Pa
Storage Modulus Mean (1 micromolar CypA, 27 min): 86.3105 Pa
Storage Modulus Mean (1 micromolar CypA, 27.5 min): 86.5165 Pa
Storage Modulus Mean (1 micromolar CypA, 28 min): 87.046 Pa
Storage Modulus Mean (1 micromolar CypA, 28.5 min): 87.6325 Pa
Storage Modulus Mean (1 micromolar CypA, 29 min): 87.5525 Pa
Storage Modulus Mean (1 micromolar CypA, 29.5 min): 88.015 Pa
Storage Modulus Mean (1 micromolar CypA, 30 min): 88.195 Pa
Storage Modulus Mean (3 micromolar CypA, 0.5 min): 45.9789 Pa
Storage Modulus Mean (3 micromolar CypA, 1 min): 49.0644 Pa
Storage Modulus Mean (3 micromolar CypA, 2 min): 53.4995 Pa
Storage Modulus Mean (3 micromolar CypA, 2.5 min): 55.1838 Pa
Storage Modulus Mean (3 micromolar CypA, 15.5 min): 84.8933 Pa
Storage Modulus Mean (3 micromolar CypA, 16 min): 85.5605 Pa
Storage Modulus Mean (3 micromolar CypA, 16.5 min): 86.6785 Pa
Storage Modulus Mean (3 micromolar CypA, 17 min): 87.0382 Pa
Storage Modulus Mean (3 micromolar CypA, 17.5 min): 87.6182 Pa
Storage Modulus Mean (3 micromolar CypA, 18 min): 88.2994 Pa
Storage Modulus Mean (3 micromolar CypA, 18.5 min): 88.7376 Pa
Storage Modulus Mean (3 micromolar CypA, 19 min): 89.3381 Pa
Storage Modulus Mean (3 micromolar CypA, 19.5 min): 89.8813 Pa
Storage Modulus Mean (3 micromolar CypA, 20 min): 90.0627 Pa
Storage Modulus Mean (3 micromolar CypA, 20.5 min): 90.5612 Pa
Storage Modulus Mean (3 micromolar CypA, 21 min): 91.1542 Pa
Storage Modulus Mean (3 micromolar CypA, 22 min): 91.9938 Pa
Storage Modulus Mean (3 micromolar CypA, 22.5 min): 92.8273 Pa
Storage Modulus Mean (3 micromolar CypA, 23 min): 92.9993 Pa
Storage Modulus Mean (3 micromolar CypA, 23.5 min): 93.2874 Pa
Storage Modulus Mean (3 micromolar CypA, 24 min): 93.7276 Pa
Storage Modulus Mean (3 micromolar CypA, 24.5 min): 94.5164 Pa
Storage Modulus Mean (3 micromolar CypA, 25 min): 94.846 Pa
Storage Modulus Mean (3 micromolar CypA, 25.5 min): 95.3103 Pa
Storage Modulus Mean (3 micromolar CypA, 26 min): 95.1809 Pa
Storage Modulus Mean (3 micromolar CypA, 26.5 min): 95.7882 Pa
Storage Modulus Mean (3 micromolar CypA, 27 min): 96.6688 Pa
Storage Modulus Mean (3 micromolar CypA, 27.5 min): 97.1011 Pa
Storage Modulus Mean (3 micromolar CypA, 28 min): 97.156 Pa
Storage Modulus Mean (3 micromolar CypA, 28.5 min): 98.5343 Pa
Storage Modulus Mean (3 micromolar CypA, 29 min): 99.0328 Pa
Storage Modulus Mean (3 micromolar CypA, 29.5 min): 100.228 Pa
Storage Modulus Mean (3 micromolar CypA, 30 min): 99.8878 Pa
Storage Modulus Mean (9 micromolar CypA, 0.5 min): 48.3835 Pa
Storage Modulus Mean (9 micromolar CypA, 1 min): 51.2215 Pa
Storage Modulus Mean (9 micromolar CypA, 2 min): 57.3525 Pa
Storage Modulus Mean (9 micromolar CypA, 2.5 min): 59.712 Pa
Storage Modulus Mean (9 micromolar CypA, 16 min): 97.514 Pa
Storage Modulus Mean (9 micromolar CypA, 16.5 min): 98.3775 Pa
Storage Modulus Mean (9 micromolar CypA, 17 min): 98.824 Pa
Storage Modulus Mean (9 micromolar CypA, 17.5 min): 99.915 Pa
Storage Modulus Mean (9 micromolar CypA, 18 min): 100.862 Pa
Storage Modulus Mean (9 micromolar CypA, 18.5 min): 102.139 Pa
Storage Modulus Mean (9 micromolar CypA, 19 min): 102.537 Pa
Storage Modulus Mean (9 micromolar CypA, 19.5 min): 103.419 Pa
Storage Modulus Mean (9 micromolar CypA, 20 min): 104.135 Pa
Storage Modulus Mean (9 micromolar CypA, 20.5 min): 104.868 Pa
Storage Modulus Mean (9 micromolar CypA, 21 min): 105.51 Pa
Storage Modulus Mean (9 micromolar CypA, 22 min): 107.135 Pa
Storage Modulus Mean (9 micromolar CypA, 22.5 min): 105.845 Pa
Storage Modulus Mean (9 micromolar CypA, 23 min): 108.225 Pa
Storage Modulus Mean (9 micromolar CypA, 23.5 min): 108.535 Pa
Storage Modulus Mean (9 micromolar CypA, 24 min): 109.33 Pa
Storage Modulus Mean (9 micromolar CypA, 24.5 min): 109.7 Pa
Storage Modulus Mean (9 micromolar CypA, 25 min): 110.57 Pa
Storage Modulus Mean (9 micromolar CypA, 25.5 min): 110.88 Pa
Storage Modulus Mean (9 micromolar CypA, 26 min): 111.675 Pa
Storage Modulus Mean (9 micromolar CypA, 26.5 min): 112.945 Pa
Storage Modulus Mean (9 micromolar CypA, 27 min): 113.825 Pa
Storage Modulus Mean (9 micromolar CypA, 27.5 min): 114.675 Pa
Storage Modulus Mean (9 micromolar CypA, 28 min): 115.035 Pa
Storage Modulus Mean (9 micromolar CypA, 28.5 min): 116.38 Pa
Storage Modulus Mean (9 micromolar CypA, 29 min): 117.535 Pa
Storage Modulus Mean (9 micromolar CypA, 29.5 min): 117.475 Pa
Storage Modulus Mean (9 micromolar CypA, 30 min): 118.305 Pa
Storage Modulus Mean (20 micromolar CypA, 0.5 min): 42.6015 Pa
Storage Modulus Mean (20 micromolar CypA, 1 min): 44.31 Pa
Storage Modulus Mean (20 micromolar CypA, 2 min): 46.824 Pa
Storage Modulus Mean (20 micromolar CypA, 2.5 min): 47.847 Pa
Storage Modulus Mean (20 micromolar CypA, 16 min): 60.5165 Pa
Storage Modulus Mean (20 micromolar CypA, 16.5 min): 60.939 Pa
Storage Modulus Mean (20 micromolar CypA, 17 min): 60.6445 Pa
Storage Modulus Mean (20 micromolar CypA, 17.5 min): 61.2835 Pa
Storage Modulus Mean (20 micromolar CypA, 18 min): 61.65 Pa
Storage Modulus Mean (20 micromolar CypA, 18.5 min): 61.665 Pa
Storage Modulus Mean (20 micromolar CypA, 19 min): 61.776 Pa
Storage Modulus Mean (20 micromolar CypA, 19.5 min): 62.2455 Pa
Storage Modulus Mean (20 micromolar CypA, 20 min): 62.674 Pa
Storage Modulus Mean (20 micromolar CypA, 20.5 min): 62.903 Pa
Storage Modulus Mean (20 micromolar CypA, 21 min): 63.1325 Pa
Storage Modulus Mean (20 micromolar CypA, 22 min): 63.405 Pa
Storage Modulus Mean (20 micromolar CypA, 22.5 min): 63.372 Pa
Storage Modulus Mean (20 micromolar CypA, 23 min): 64.3175 Pa
Storage Modulus Mean (20 micromolar CypA, 23.5 min): 64.6855 Pa
Storage Modulus Mean (20 micromolar CypA, 24 min): 65.3115 Pa
Storage Modulus Mean (20 micromolar CypA, 24.5 min): 65.306 Pa
Storage Modulus Mean (20 micromolar CypA, 25 min): 65.35 Pa
Storage Modulus Mean (20 micromolar CypA, 25.5 min): 65.5815 Pa
Storage Modulus Mean (20 micromolar CypA, 26.5 min): 66.185 Pa
Storage Modulus Mean (20 micromolar CypA, 27 min): 66.527 Pa
Storage Modulus Mean (20 micromolar CypA, 27.5 min): 66.8255 Pa
Storage Modulus Mean (20 micromolar CypA, 28 min): 66.954 Pa
Storage Modulus Mean (20 micromolar CypA, 28.5 min): 67.21 Pa
Storage Modulus Mean (20 micromolar CypA, 29 min): 67.2745 Pa
Storage Modulus Mean (20 micromolar CypA, 29.5 min): 67.3945 Pa
Storage Modulus Mean (20 micromolar CypA, 30 min): 67.5465 Pa
